Experimental data reported in publication PMC12370185.
The list shows a part of the results.

The sequences below were run on c-MYC + MAX + histone octamer (assay: EMSA with sequencing). Details: 10 mM Tris-Cl pH 7.5, 50 mM NaCl, 1 mM DTT, 0.25 mg/ml BSA, 2 mM MgCl2, 0.025% Nonidet P-40, 5% glycerol; 28 nM nucleosome library; 10 min on ice then 30 min …; high values mean tight binding; double strand, one strand shown.

Question: Which binding signal (log2 relative supershift) does the source give for “GATGGACCCTATACGCGGCGCGGAAGCCACCCACCAAGCTCACACAAGGGATGTGGCTGAACATGTGCTGGGCAAACACTAGAGGGTGAGAGTGGGGCTGACTTAGTAAAAGGGACATGTGGCTTGATTTTTAGTGAAATACCATAGTGTCACAACTAGTGCTGTCTCTGCCCCACGCCAAAAGGAAAAGTCAAGTGAAATAGGCTGGGTTGCCAGTCGGATAGTGTTCC” here?
Answer: 0.204

Question: For “GATGGACCCTATACGCGGCAACACAAACATCCAGTCCATCGCACTGTTCTTCAAACATGCCATGGTGCTCCCCACTCCTGGCCCTTGCACGTGCTCTTCCTTCCACTTAGGATGCCATCTCCGTGCTCCACCCACCTCCTGTGAGTCAGCCTAACACCCTGCTCCTTCAATGGCCAGCCTAAGTATCTCCACCTCTAGGATGCCTCCCTGTGCCAGTCGGATAGTGTTCC”, which binding signal (log2 relative supershift) is on record?
Answer: 0.101

Question: For “GATGGACCCTATACGCGGCTACTATATAGCTACTCCCCTCTAATATGCACTCTAAGCCCCACCCTTACTGCACTGCTCCACCCTGTGTCTCACCACCATGTGTTTGCTCATGCTGTTCTCTTGGCTTCTCCCCACATCTTGCACCCTTGCTATTAAACTCCTAATGTTTCTTCAAAGTACAGTTCAAAGATCACTTCCTCTTGGGCATATTGCCAGTCGGATAGTGTTCC”, which binding signal (log2 relative supershift) is on record?
Answer: 0.117

Question: “GATGGACCCTATACGCGGCGCTGGTGTATGCTGGGAGCTATGCAGGCGTAGGGTGTGTCCTGGGCCAGAGGACACAGCACATGCTTAGGCTTGGGAGAAAGGACACTCGCCTGTGATGGGAGAGGCACTCATATTTGGGTCTGTGGTCTGGGCTGTGTGGGTGGGACACAGGGTGTGGACCTGGGTGGATCTTAAGGAGGGTGGATGGCATGCCAGTCGGATAGTGTTCC” was tested. Which binding signal (log2 relative supershift) did it give?
Answer: 0.859
